Results published in publication PMC4728560, “TCTP contains a BH3-like domain, which instead of inhibiting, activates Bcl-xL” (Scientific Reports, 2016).
Results are given in words; binding and its absence hold for the method and conditions named. For some of these results: Binding can be weak; no strength is given.

Amino acid sequences for entries named in this document (tags omitted). A change or cut given only in a name is not applied to a line headed by its entry.
UniProt Q07817: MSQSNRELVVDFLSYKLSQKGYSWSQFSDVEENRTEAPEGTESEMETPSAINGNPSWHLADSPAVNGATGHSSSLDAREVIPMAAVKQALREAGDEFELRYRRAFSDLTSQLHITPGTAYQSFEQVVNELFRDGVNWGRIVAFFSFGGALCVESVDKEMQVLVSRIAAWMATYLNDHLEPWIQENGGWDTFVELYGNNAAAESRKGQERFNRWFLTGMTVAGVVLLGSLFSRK

Experiments:
[1] = target: Bcl-xL, recombinant protein (human) (UniProt Q07817); test: SEC + SEC-MALS + native MS; as a1, with the BH3 mimetic ABT-737; which method showed it is not told in the main text (Supplementary Figs 1–6); both purified
[2] = target: Bcl-xL, recombinant protein (human) (UniProt Q07817); test: SEC + SEC-MALS + native MS; proteins mixed at 100 μM, dialyzed against 10 mM CHES pH 9, 50 mM NaCl, 1 mM DTT or TCEP, heated overnight at 30 °C; S200 gel filtration, SEC-MALS, nanoESI-MS in 50 mM ammonium acetate pH 9.0; the text speaks only of 'biochemical and biophysical studies' (Supplementary Figs 1–6); both purified
[3] = target: Bcl-xL-Y101K mutant (human) (UniProt Q07817); test: condition: proteins mixed at 100 μM (when not specified); SEC + SEC-MALS + native MS; proteins mixed at 100 μM, dialyzed against 10 mM CHES pH 9, 50 mM NaCl, 1 mM DTT or TCEP, heated overnight at 30 °C; S200 gel filtration, SEC-MALS, nanoESI-MS in 50 mM ammonium acetate pH 9.0; the text speaks only of 'biochemical and biophysical studies' (Supplementary Figs 1–6); both purified
[4] = target: Bcl-xL-Y101K mutant (human) (UniProt Q07817); test: ITC; peptide titrated into Bcl-xL in the cell; 30 °C, 50 mM ammonium bicarbonate pH 9; ITC200 calorimeter; both purified
[5] = target: Bcl-xL deletion variant (Bcl-xLΔ27–81ΔTM) (human) (UniProt Q07817); test: crystal structure; 300 μM Bcl-xL (Δ27–81ΔCT) + 1 mM TCTP11–31 in 50 mM ammonium bicarbonate pH 9.3; sitting drop, 20 °C; 2.1 Å; both purified
[6] = target: Bcl-xL, recombinant protein (human) (UniProt Q07817); test: condition: proteins mixed at 100 μM (when not specified); SEC + SEC-MALS + native MS; proteins mixed at 100 μM, dialyzed against 10 mM CHES pH 9, 50 mM NaCl, 1 mM DTT or TCEP, heated overnight at 30 °C; S200 gel filtration, SEC-MALS, nanoESI-MS in 50 mM ammonium acetate pH 9.0; the text speaks only of 'biochemical and biophysical studies' (Supplementary Figs 1–6); both purified
[7] = target: Bcl-xL, recombinant protein (human) (UniProt Q07817); test: ITC; peptide titrated into Bcl-xL in the cell; 30 °C, 50 mM ammonium bicarbonate pH 9; ITC200 calorimeter; both purified

B1: Translationally Controlled Tumor Protein (TCTP), full-length recombinant protein (protein, UniProt P13693 1-172)
chain: MIIYRDLISHDEMFSDIYKIREIADGLCLEVEGKMVSRTEGNIDDSLIGGNASAEGPEGEGTESTVITGVDIVMNHHLQETSFTKEAYKKYIKDYMKSIKGKLEEQRPERVKPFMTGAAEQIKHILANFKNYQFFIGENMNPDGMVALLDYREDGVTPYMIFFKDGLEMEKC
In the case of B1, the binding [1] is reported as “no binding (only with ABT-737)”, the binding [2] is reported as “binds” and the binding [3] is reported as “no binding”.

For DEMFSDIYKIREIADGLCLEV (peptide, UniProt P13693 11-31) [TCTP_(11–31) peptide], the binding [4] was “no binding (tested: Bcl-xL-Y101K 0.072 mM, TCTP-BH3 0.955 mM)” and the binding [5] was “binds”.

B2: full-length TCTP-R21A N-terminal mutant (protein, UniProt P13693 1-172)
chain: MIIYRDLISHDEMFSDIYKIAEIADGLCLEVEGKMVSRTEGNIDDSLIGGNASAEGPEGEGTESTVITGVDIVMNHHLQETSFTKEAYKKYIKDYMKSIKGKLEEQRPERVKPFMTGAAEQIKHILANFKNYQFFIGENMNPDGMVALLDYREDGVTPYMIFFKDGLEMEKC
B2 was tested, and the binding [6] was “no binding”.

In the case of DEMFSDIYKIAEIADGLCLEV (peptide, UniProt P13693 11-31) [TCTP_(11–31)-R21A peptide], the binding [7] is reported as “no binding (tested: Bcl-xL 0.065 mM, TCTP-BH3-R21A 1.26 mM)”.
